Results are given in words; binding and its absence hold for the method and conditions named. In cells and extracts the contact can be indirect. Some binding calls cover weakened binding; strength is not graded here.
Tests used:
[1] = molecular target: Bos taurus FFAR2/GPR43 with an N-terminal FLAG epitope and C-terminal Renilla reniformis luciferase (bFFAR2-Rluc8) (Bos taurus); assay: FRET or BRET; BRET in living HEK293A cells as a1, cells stimulated with increasing doses of 2-methyl-propanoic acid (2MP), 10 min
[2] = molecular target: Bos taurus FFAR2/GPR43 with an N-terminal FLAG epitope and C-terminal Renilla reniformis luciferase (bFFAR2-Rluc8) (Bos taurus); assay: FRET or BRET; BRET in living HEK293A cells; bFFAR2-Rluc8 donor, Venus-mG or yPET-β-arrestin 2 acceptor; cells stimulated with FFAs (C2:0 at 0.1 M, C8:0 at 1 mM, other FFAs at 3.16 mM, or increasing doses); signals recorded 10 min, coelenterazine H 5 µM, AUC of net BRET over solvent control

Chains of the proteins cited; added tags and fusions are not shown.
UniProt P32121: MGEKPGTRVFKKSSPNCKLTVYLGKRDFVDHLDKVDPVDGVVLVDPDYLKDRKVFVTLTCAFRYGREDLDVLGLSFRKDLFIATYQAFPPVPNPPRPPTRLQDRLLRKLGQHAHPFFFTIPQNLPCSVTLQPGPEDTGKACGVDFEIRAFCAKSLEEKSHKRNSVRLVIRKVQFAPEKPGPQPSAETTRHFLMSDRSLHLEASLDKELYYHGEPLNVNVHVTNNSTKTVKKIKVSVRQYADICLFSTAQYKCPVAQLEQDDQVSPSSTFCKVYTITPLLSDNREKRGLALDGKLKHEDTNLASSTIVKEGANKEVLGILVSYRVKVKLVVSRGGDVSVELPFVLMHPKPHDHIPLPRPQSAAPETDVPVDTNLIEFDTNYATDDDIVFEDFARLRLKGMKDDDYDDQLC

β-arrestin 2 N-terminally fused with acceptor yPET (YPET-β-arrestin 2) (from UniProt P32121 1-409)
binding [1]: binds weakly | binding [2]: binds
